Test results published in paper PMC12078616.
The exact form of at least one protein or probe is not confirmed. For part of these data: The comparison behind a weaker result is the experiment's own reference, which may not be listed here. For part of these data: At least one verdict rests on a figure or table, not on a statement of the authors.

Chains of the proteins cited; added tags and fusions are not shown.
UniProt P12004, whole entry: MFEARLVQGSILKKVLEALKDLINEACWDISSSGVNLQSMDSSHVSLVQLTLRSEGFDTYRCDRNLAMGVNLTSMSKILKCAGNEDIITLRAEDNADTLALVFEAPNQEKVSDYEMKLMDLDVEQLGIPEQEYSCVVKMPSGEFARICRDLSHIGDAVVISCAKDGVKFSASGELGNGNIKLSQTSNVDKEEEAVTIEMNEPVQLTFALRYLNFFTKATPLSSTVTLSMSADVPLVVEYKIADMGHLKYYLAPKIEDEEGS

Legend:
[1] = test system: PCNA D232A + trFAN1 R507H; experiment: SPR; conditions: 100 nM trFAN1; recombinant protein
PCNA WT + FAN1 WT [2] = experiment: SPR; conditions: 100 nM FAN1, Kd within 4-fold of homoduplex; recombinant protein
PCNA WT (human) [3] = target: PCNA WT (human) (UniProt P12004); experiment: SPR; conditions: no FAN1; recombinant protein; protein details: His tag removed by PreScission
PCNA D232A + FAN1 WT [4] = experiment: SPR; conditions: PCNA titrated, 100 nM FAN1; recombinant protein
PCNA D232A + FAN1 R507H [5] = experiment: SPR; conditions: PCNA titrated, 100 nM FAN1; recombinant protein
[6] = test system: PCNA D232A + trFAN1 R507H; experiment: MST; conditions: 100 nM trFAN1, MST: 25 mM HEPES pH 7.5, 125 mM KCl, 10 mM CaCl2, 5% glycerol, 1 mM TCEP, 0.005% Tween-20, 0.1% BSA, 10 nM Cy5-DNA, 25 °C, recombinant protein; for binding result: label: 3'-Cy5 on strand 2
PCNA WT + FAN1 WT [7] = experiment: MST; conditions: MST: 25 mM HEPES pH 7.5, 125 mM KCl, 10 mM CaCl2, 5% glycerol, 1 mM TCEP, 0.005% Tween-20, 0.1% BSA, 10 nM Cy5-DNA, 25 °C, recombinant protein; for binding result: 100 nM FAN1, Kd within 4-fold of homoduplex, label: 3'-Cy5 on strand 2
PCNA WT (human) [8] = target: PCNA WT (human) (UniProt P12004); experiment: MST; conditions: no FAN1; MST: 25 mM HEPES pH 7.5, 125 mM KCl, 10 mM CaCl2, 5% glycerol, 1 mM TCEP, 0.005% Tween-20, 0.1% BSA, 10 nM Cy5-DNA, 25 °C; recombinant protein; protein details: His tag removed by PreScission; label: 3'-Cy5 on strand 1; letters put together from the description
PCNA D232A + FAN1 WT [9] = experiment: MST; conditions: PCNA titrated, 100 nM FAN1; MST: 25 mM HEPES pH 7.5, 125 mM KCl, 10 mM CaCl2, 5% glycerol, 1 mM TCEP, 0.005% Tween-20, 0.1% BSA, 10 nM Cy5-DNA, 25 °C; recombinant protein; label: 3'-Cy5 on strand 1; letters put together from the description
PCNA D232A + FAN1 R507H [10] = experiment: MST; conditions: PCNA titrated, 100 nM FAN1; MST: 25 mM HEPES pH 7.5, 125 mM KCl, 10 mM CaCl2, 5% glycerol, 1 mM TCEP, 0.005% Tween-20, 0.1% BSA, 10 nM Cy5-DNA, 25 °C; recombinant protein; label: 3'-Cy5 on strand 1; letters put together from the description
PCNA WT + FAN1 R507H = experiment: MST; conditions: PCNA titrated, 100 nM FAN1; MST: 25 mM HEPES pH 7.5, 125 mM KCl, 10 mM CaCl2, 5% glycerol, 1 mM TCEP, 0.005% Tween-20, 0.1% BSA, 10 nM Cy5-DNA, 25 °C; recombinant protein; label: 3'-Cy5 on strand 1; letters put together from the description

Row | Sequence | binding result [1] | binding result (PCNA WT + FAN1 WT [2]) | binding result [6] | binding result (PCNA WT + FAN1 WT [7]) | other results
1 | CCGCTTTCTTCCCTTCCTTTGTGCACACGTTCCGAGATATCCTAGCAAGTGATCGTCAGCAGCAGCAGCTATGTAGCTCAAGAGTTCGACTTTCCCCGCTAAGCTCTACATCCGAGGCTCGCCGA / TCGGCGAGCCTCGGATGTAGAGCTTAGCGGGGAAAGTCGAACTCTTGAGCTACATAGTACGATCACTTGCTAGGATATCTCGGAACGTGTGCACAAAGGAAGGGAAGAAAGCGG [113 bp (CAG)4 extrahelical extrusion] | binds more weakly | binds |  |  | 
2 | CCGCTTTCTTCCCTTCCTTTGTGCACACGTTCCGAGATATCCTAGCAAGTGATCGTCAGCAGCAGCTATGTAGCTCAAGAGTTCGACTTTCCCCGCTAAGCTCTACATCCGAGGCTCGCCGA / TCGGCGAGCCTCGGATGTAGAGCTTAGCGGGGAAAGTCGAACTCTTGAGCTACATAGTACGATCACTTGCTAGGATATCTCGGAACGTGTGCACAAAGGAAGGGAAGAAAGCGG [113 bp (CAG)3 extrahelical extrusion] | binds more weakly | binds |  |  | 
3 | CCGCTTTCTTCCCTTCCTTTGTGCACACGTTCCGAGATATCCTAGCAAGTGATCGTCAGCAGCTATGTAGCTCAAGAGTTCGACTTTCCCCGCTAAGCTCTACATCCGAGGCTCGCCGA / TCGGCGAGCCTCGGATGTAGAGCTTAGCGGGGAAAGTCGAACTCTTGAGCTACATAGTACGATCACTTGCTAGGATATCTCGGAACGTGTGCACAAAGGAAGGGAAGAAAGCGG [113 bp (CAG)2 extrahelical extrusion] | binds more weakly |  |  |  | 
4 | CCGCTTTCTTCCCTTCCTTTGTGCACACGTTCCGAGATATCCTAGCAAGTGATCGTCAGCTATGTAGCTCAAGAGTTCGACTTTCCCCGCTAAGCTCTACATCCGAGGCTCGCCGA / TCGGCGAGCCTCGGATGTAGAGCTTAGCGGGGAAAGTCGAACTCTTGAGCTACATAGTACGATCACTTGCTAGGATATCTCGGAACGTGTGCACAAAGGAAGGGAAGAAAGCGG [113 bp (CAG)1 extrahelical extrusion] | binds more weakly | binds |  |  | 
5 | CCGCTTTCTTCCCTTCCTTTGTGCACACGTTCCGAGATATCCTAGCAAGTGATCGTCTATGTAGCTCAAGAGTTCGACTTTCCCCGCTAAGCTCTACATCCGAGGCTCGCCGA / TCGGCGAGCCTCGGATGTAGAGCTTAGCGGGGAAAGTCGAACTCTTGAGCTACATAGTACGATCACTTGCTAGGATATCTCGGAACGTGTGCACAAAGGAAGGGAAGAAAGCGG [113 bp homoduplex] |  |  |  |  | Kd (PCNA WT (human) [3]): > 10 µM; Kd (PCNA D232A + FAN1 WT [4]): 3.7 µM; binding result (PCNA D232A + FAN1 R507H [5]): binds more weakly
6 | CTGAAGCTTAGCTTAGGATCATCGAGGATCCAGAGCTCGGTGCAATTCAGCGGTACCCAATTC / GAATTGGGTACCGCTGAATTGCACCGAGCTGATCCTCGATGATCCTAAGCTAAGCTTCAG [61 bp (CAG)1 extrahelical extrusion] |  |  | binds more weakly | binds | 
7 | CTGAAGCTTAGCTTAGGATCATCGAGGATCCAGCAGAGCTCGGTGCAATTCAGCGGTACCCAATTC / GAATTGGGTACCGCTGAATTGCACCGAGCTGATCCTCGATGATCCTAAGCTAAGCTTCAG [61 bp (CAG)2 extrahelical extrusion] |  |  | binds more weakly | binds | 
8 | CTGAAGCTTAGCTTAGGATCATCGAGGATCCAGCAGCAGAGCTCGGTGCAATTCAGCGGTACCCAATTC / GAATTGGGTACCGCTGAATTGCACCGAGCTGATCCTCGATGATCCTAAGCTAAGCTTCAG [61 bp (CAG)3 extrahelical extrusion] |  |  | binds more weakly | binds | 
9 | CTGAAGCTTAGCTTAGGATCATCGAGGATCCAGCAGCAGCAGAGCTCGGTGCAATTCAGCGGTACCCAATTC / GAATTGGGTACCGCTGAATTGCACCGAGCTGATCCTCGATGATCCTAAGCTAAGCTTCAG [61 bp (CAG)4 extrahelical extrusion] |  |  | binds more weakly | binds | 
10 | GAATTGGGTACCGCTGAATTGCACCGAGCTGATCCTCGATGATCCTAAGCTAAGCTTCAG (double strand) [61 bp homoduplex] |  |  |  |  | Kd (PCNA WT (human) [8]): > 10 µM; Kd (PCNA D232A + FAN1 WT [9]): 1.3 µM; Kd (PCNA D232A + FAN1 R507H [10]): 5.1 µM; Kd (PCNA WT + FAN1 R507H): 2.3 µM; Kd ([6]; PCNA titrated, label: 3'-Cy5 on strand 1, letters put together from the description): 15.8 µM; Kd (PCNA WT + FAN1 WT [7]; PCNA titrated, 100 nM FAN1, label: 3'-Cy5 on strand 1, letters put together from the description): 0.5 µM
